In assay [1] the target is human ARC105/MED15 KIX domain (human) (UniProt Q96RN5). Briefly: NMR titration.
The target in assay [2] is Gal11p KIX domain (S. cerevisiae) (S. cerevisiae) (UniProt P19659). Description: NMR chemical shift analysis.
Assay [3] shares this target. Description: mapping studies (data not shown).
In assay [4] the target is Gal11p-Flag2 (C-terminal Flag-tagged full-length S. cerevisiae Gal11p) (S. cerevisiae) (UniProt P19659). Briefly: co-immunoprecipitation, anti-Flag IP, anti-Myc blot.
Assay [5] has the same target. Description: co-immunoprecipitation.
In assay [6] the target is GST-Gal11p KIX (amino acids 1-100) (S. cerevisiae) (UniProt P19659). Briefly: GST pulldown, anti-Myc immunoblot. A general note: In western blotting, separated proteins are transferred to a membrane and probed.
Assay [7] shares this target. Description: GST pulldown.

The chains behind the UniProt entries cited, without tags or fusion partners. Where a name states a change or a piece, a line headed by the entry shows the natural chain unless it says otherwise. Residues count along the entry.
UniProt Q96RN5, residues 5-78: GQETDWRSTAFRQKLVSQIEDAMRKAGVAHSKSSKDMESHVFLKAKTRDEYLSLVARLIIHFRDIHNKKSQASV
UniProt P19659: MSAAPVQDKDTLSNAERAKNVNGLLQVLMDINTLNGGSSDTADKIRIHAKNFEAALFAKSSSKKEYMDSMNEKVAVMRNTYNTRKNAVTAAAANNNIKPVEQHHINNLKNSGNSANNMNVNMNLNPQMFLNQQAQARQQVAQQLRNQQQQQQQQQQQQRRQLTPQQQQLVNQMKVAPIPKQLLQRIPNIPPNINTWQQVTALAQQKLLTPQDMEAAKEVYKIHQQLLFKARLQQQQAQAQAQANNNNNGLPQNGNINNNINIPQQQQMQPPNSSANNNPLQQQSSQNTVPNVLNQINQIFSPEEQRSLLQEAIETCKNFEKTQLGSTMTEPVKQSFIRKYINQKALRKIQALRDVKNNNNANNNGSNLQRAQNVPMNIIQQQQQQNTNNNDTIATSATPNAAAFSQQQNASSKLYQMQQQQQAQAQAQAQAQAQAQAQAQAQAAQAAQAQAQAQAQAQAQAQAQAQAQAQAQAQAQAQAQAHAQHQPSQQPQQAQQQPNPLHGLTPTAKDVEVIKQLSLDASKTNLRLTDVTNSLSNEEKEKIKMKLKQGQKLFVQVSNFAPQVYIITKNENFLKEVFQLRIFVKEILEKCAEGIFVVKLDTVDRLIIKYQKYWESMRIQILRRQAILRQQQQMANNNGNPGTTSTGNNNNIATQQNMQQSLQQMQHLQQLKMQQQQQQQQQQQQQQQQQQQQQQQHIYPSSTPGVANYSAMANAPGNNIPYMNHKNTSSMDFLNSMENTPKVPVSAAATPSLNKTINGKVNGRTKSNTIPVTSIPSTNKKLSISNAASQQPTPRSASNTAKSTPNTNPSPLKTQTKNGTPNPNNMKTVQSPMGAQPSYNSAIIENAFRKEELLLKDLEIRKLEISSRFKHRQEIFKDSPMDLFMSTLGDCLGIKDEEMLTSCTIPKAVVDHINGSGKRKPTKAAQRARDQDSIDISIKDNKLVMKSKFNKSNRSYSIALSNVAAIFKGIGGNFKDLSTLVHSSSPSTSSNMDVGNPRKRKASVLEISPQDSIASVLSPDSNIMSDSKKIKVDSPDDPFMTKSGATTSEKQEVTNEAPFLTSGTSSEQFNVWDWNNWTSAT
GST-Gal11p KIX (amino acids 1-100): residues 1-100 of P19659
Gal11p KIX domain (S. cerevisiae): residues 6-90 of P19659

These are yes or no findings as the source states them, for the method shown. For some of these results: Binding seen in cells or lysates may run through a third protein. Some entries that bind do so weakly or less than the wild type. For some of these results: Where a sequence is shown, tags or fusion partners need not be part of it.

The values that follow come from patent US20100273676A1 (GENERAL HOSPITAL, published 2010).

“Pdr1pAD-34 (C-terminal 34 amino acids of the S. cerevisiae Pdr1p activation domain) (from UniProt P12383 1035-1068) (peptide)”: the binding entry in assay [1] and in assay [2] was “binds” in each case.

As to “Pdr1pAD (C-terminal Pdr1p sequences containing the activation domain) (from UniProt P12383 879-1068)”, in assay [3], the binding entry was “binds”.

B1: Myc6-Pdr1p (N-terminal Myc-tagged full-length wild-type S. cerevisiae Pdr1p) (protein)
chain: MRGLTPKNGVHIETGPDTESSADSSNFSTGFSGKIRKPRSKVSKACDNCRKRKIKCNGKFPCASCEIYSCECTFSTRQGGARIKNLHKTSLEGTTVQVKEETDSSSTSFSNPQRCTDGPCAVEQPTKFFENFKLGGRSSGDNSGSDGKNDDDVNRNGFYEDDSESQATLTSLQTTLKNLKEMAHLGTHVTSAIESIELQISDLLKRWEPKVRTKELATTKFYPNKSIETQLMKNKYCDVVHLTRYAAWSNNKKDQDTSSQPLIDEIFGLYSPFQFLSLQGIGKCFQNYRSKSKCEIFPRTAKETIYIMLRFFDVCFHHINQGCVSIANPLENYLQKMNLLPSTPSSISSAGSPNTAHTKSHVALVINHLPQPFVRNITGISNSELLSEMNNDISMFGILLKMLDMHKNSYQNFLMEITSNPSVAKNTQSIDVLQEFIHYCQAGEALIALCYSYYNSTLYNYVDFTCDITHLEQLLYFLDLLFWLSEIYGFEKVLNVAVHFVSRVGLSRWEFYVGLDENFAERRRNLWWKAFYFEKTLASKLGYPSNIDDSKINCLLPKNFRDVGFLDNRDFIENVHLVRRSEAFDNMCISDLKYYGELAVLQIVSHFSSSVLFNEKFTSIRNTSKPSVVREKLLFEVLEIFNETEMKYDAIKEQTGKLFDIAFSKDSTELKVSREDKIMASKFVLFYEHHFCRMVNESDNIVARLCVHRRPSILIENLKIYLHKIYKSWTDMNKILLDFDNDYSVYRSFAHYSISCIILVSQAFSVAEFIKVNDVVNMIRVFKRFLDIKIFSENETNEHVFNSQSFKDYTRAFSFLTIVTRIMLLAYGESSSTNLDVISKYIDENAPDLKGIIELVLDTNSCAYRFLLEPVQKSGFHLTVSQMLKNRKFQEPLMSNEDNKQMKHNSGKNLNPDLPSLKTGTSCLLNGIESPQLPFNGRSAPSPVRNNSLPEFAQLPSFRSLSVSDMINPDYAQPTNGQNNTQVQSNKPINAQQQIPTSVQVPFMNTNEINNNNNNNNNNKNNINNINNNNSNNFSATSFNLGTLDEFVNNGDLEDLYSILWSDVYPDS
As to B1, the binding result in assay [4], in assay [5], in assay [6] and in assay [7] was “binds” in each case.
